The results in this text go back to PubChem BioAssay (EPA / NIEHS).

Most of the hits are listed elsewhere, so they are rarer here than in the full data. Inconclusive results are not listed. Calls of active or inactive are those of the source. How the source made its calls: active means hit-call score of the fitted dose curve at least 0.9, where 1 is the maximum; inconclusive means response in the unintended direction; inactive means score below 0.9.

By AC50 is commonly meant the midpoint of the concentration-response curve, whichever way the signal moves.

One assay is described as follows: ACEA_AR_agonist_AUC_viability: ACEA Biosciences xCELLigence Real-Time Cell Analysis on Androgen Receptor Agonism for Viability (AID 2283775). Summed up: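 Read-out is area under the impedance curve at 80 h post-dose in 22Rv1 cells, with DMSO as baseline and signal loss taken as reduced viability. Compounds ran in duplicate from 100 uM final.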
With `C/C=C/C=C/CCCCCCCO`, the result was inactive.
Still for that read-out and setting: next, `CCCCCCOC(=O)CCCCC(=O)OCCCCCC`: “inactive”; `Oc1ccccc1Cc1ccccc1O`: “inactive”; `CCOC(=O)Cc1cccc2ccccc12`: “inactive”.
Same read-out and setting: next, `CCCCOc1ccc(N)cc1`: “inactive”.
Same read-out and setting: next, `COc1ccc(N=Nc2cc(C)c(N=Nc3ccc(S(=O)(=O)O)cc3)cc2OC)cc1`: “inactive”; `CC(C)c1ccccc1O`: “inactive”.
For the compound `Cc1ccc(N/N=c2\c(=O)cc/c(=N/Nc3ccc(S(=O)(=O)O)cc3)c2=O)c(C)c1`, the outcome was inactive.
On the same count and under the same terms, next, `Cc1ccccc1S(=O)(=O)O`: “inactive”.
Take `CCCCCCCCCCCCCC(=O)O`: the compound was classed as inactive.
Still for that read-out and setting: next, `CCCC1CCC(=O)CC1`: “inactive”; `CCCCC(CC)COC(C)=O` (stereo not given): “inactive”; `Cn1c([N+](=O)[O-])cnc1COC(N)=O`: “inactive”.
The same measure, in the same setting: next, `CC(C)(C)c1ccc(N)cc1`: “inactive”; `CCCCCCCCCCCCCCCC(=O)O`: “inactive”; `CCOc1ccc(N=Nc2ccc(C=Cc3ccc(N=Nc4ccc(OCC)cc4)cc3S(=O)(=O)O)c(S(=O)(=O)O)c2)cc1`: “inactive”.
Still for that read-out and setting: next, `O=S(=O)(O)c1cc(S(=O)(=O)O)c2c(N=Nc3ccccc3)c(O)ccc2c1`: “inactive”; `Nc1ccc(S(=O)(=O)Nc2cnc3ccccc3n2)cc1`: “inactive”.
Regarding `CO[Si](OC)(OC)c1ccccc1`, the outcome was inactive.
The same measure, in the same setting: next, `CCCCCCCCN1CCCC1=O`: “inactive”.
The same measure, in the same setting: next, `CCCCCCCCOS(=O)(=O)O`: “inactive”.

The nature of the next assay: ACEA_AR_antagonist_AUC_viability: ACEA Biosciences xCELLigence Real-Time Cell Analysis on Androgen Receptor Antagonism for Viability (AID 2283776).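 Further: 22Rv1 human prostate cancer cells growing on impedance electrode plates; area under impedance growth curve at 80 h after dosing as viability; hits lower the growth signal relative to DMSO meaning cytotoxicity.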 Summed up:
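Impedance read-out (RT-CES): area under growth curve at 80 h post-dose, loss of signal scored vs DMSO baseline. 22Rv1 cells; 8-pt 1:4 series, top 100 uM final, ≤0.5% DMSO; biological duplicate.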
On to `C/C=C/C=C/CCCCCCCO`, for which the outcome was inactive.
The same measure, in the same setting: next, `CCOC(=O)Cc1cccc2ccccc12`: “inactive”; `CCCCOc1ccc(N)cc1`: “inactive”; `CCCCOCCOC(=O)COc1nc(Cl)c(Cl)cc1Cl`: “inactive”.
Still for that read-out and setting: next, `CC(=O)/C=C/C1C(C)=CCCC1(C)C` (stereo not given): “inactive”.
`CC(C)(C)C(=O)c1ccccc1`: the outcome was inactive.
As for `COc1ccc(N=Nc2cc(C)c(N=Nc3ccc(S(=O)(=O)O)cc3)cc2OC)cc1`, the outcome was inactive.
`COc1ccc(OC)cc1`: the compound was called inactive.
The same measure, in the same setting: next, `Cc1ccccc1S(=O)(=O)O`: “inactive”.
On the same count and under the same terms, next, `CCCCCCC(=O)c1ccccc1`: “inactive”; `CCCCCCCCCCCCCC(=O)O`: “inactive”.
Still for that read-out and setting: next, `CCCC1CCC(=O)CC1`: “inactive”; `O=C(O)C1CCC(C(=O)O)CC1` (stereo not given): “inactive”; `CCCCN(CCCC)CCCCCCN(CCCC)CCCC`: “inactive”.
Regarding `Cc1ccc(S(=O)(=O)NCl)cc1`, the call was inactive.
The same measure, in the same setting: next, `CC(=O)c1ccc(O)cc1`: “inactive”; `c1ccc(CCCc2ccccn2)cc1`: “inactive”.
Turning to `CC(=O)c1ccccc1O`, the outcome was inactive.
On to `CCOc1ccc(N=Nc2ccc(C=Cc3ccc(N=Nc4ccc(OCC)cc4)cc3S(=O)(=O)O)c(S(=O)(=O)O)c2)cc1`, for which the compound was called inactive.
Same read-out and setting: next, `O=C(Oc1ccccc1)c1ccccc1O`: “inactive”; `CC(=O)C=CC1=C(C)CCCC1(C)C`: “inactive”; `Nc1ccc(S(=O)(=O)Nc2cnc3ccccc3n2)cc1`: “inactive”.
As for `CO[Si](OC)(OC)c1ccccc1`, the compound was called inactive.
The same measure, in the same setting: next, `c1ccc2scnc2c1`: “inactive”; `CCCCCCCCN1CCCC1=O`: “inactive”.
Still for that read-out and setting: next, `CN(C)C`: “inactive”; `CCCCCCCCOS(=O)(=O)O`: “inactive”.
Take `CC[C@H](NC(=O)c1cc(F)ccc1NS(=O)(=O)c1cccc2cccnc12)c1ccccc1`: the AC50 is active: 43.2 µM.
On to `CCc1cc(Cc2cc(CC)c(N)c(CC)c2)cc(CC)c1N`, for which the result was inactive.
